Assay results: patent US5093233A, “Antagonists with position 13 modification” (Merck & Co., Inc., priority 1990, dated 1992)
Part of at least one peptide drawing is inferred or uncertain, most often the ends. Square brackets hold non-standard residues; d marks the D form. Peptide text beside a SMILES is read from it. * marks the point of attachment. Hydrocinnamoyl = O=C(CCc1ccccc1)*; Nle = CCCC[C@H](N)C(=O)O; Hexanoyl = CCCCCC(=O)*

How the values were obtained:
[1] = system: B 10 human osteosarcoma cell line (cAMP stimulation by PTH agonist); assay: B 10 adenylate cyclase assay; assay type: cell-based; conditions: human osteosarcoma cell line B 10; Example 5, cAMP stimulation by InM [Nle8,18,Tyr34]bPTH(1-34)NH2; read-out: Binding KB
[2] = molecular target: bovine renal membrane adenylate cyclase (cyclic AMP production stimulated by PTH agonist); assay: Bovine renal membrane adenylate cyclase; assay type: biochemical; conditions: bovine renal membranes stimulated with 3nM [Nle8,18,Tyr34]bPTH(1-34)NH2; 30° C. for 30 min
[3] = molecular target: ROS 17/2.8 adenylate cyclase (cyclic AMP stimulation by PTH agonist); assay: ROS 17/2.8 adenylate cyclase assay; assay type: cell-based; conditions: Ros 17/2.8 rat osteosarcoma cells; inhibition of cyclic AMP stimulation by 1nM [Nle8,18,Tyr34]bPTH(1-34)NH2; 5 minutes at 37° C., IBMX

Row | Compound | Kb [1] | Ki [2] | Ki [3]
1 | CCCC[C@H](NC(=O)[C@H](CO)NC(=O)[C@H](CO)NC(=O)[C@H](CC(C)C)NC(=O)[C@H](Cc1c[nH]cn1)NC(=O)[C@H](CCCCN(CC(C)C)CC(C)C)NC(=O)[C@@H](Cc1c[nH]c2ccccc12)NC(=O)[C@H](CC(C)C)NC(=O)[C@H](CC(N)=O)NC(=O)[C@H](Cc1c[nH]cn1)NC(=O)[C@H](CCCC)NC(=O)[C@@H](N)Cc1ccccc1)C(=O)N[C@@H](CCC(=O)O)C(=O)N[C@@H](CCCNC(=N)N)C(=O)N[C@H](C(=O)N[C@@H](CCC(=O)O)C(=O)N[C@@H](Cc1c[nH]c2ccccc12)C(=O)N[C@@H](CC(C)C)C(=O)N[C@@H](CCCNC(=N)N)C(=O)N[C@@H](CCCCN)C(=O)N[C@@H](CCCCN)C(=O)N[C@@H](CC(C)C)C(=O)N[C@@H](CCC(N)=O)C(=O)N[C@@H](CC(=O)O)C(=O)N[C@H](C(=O)N[C@@H](Cc1c[nH]cn1)C(=O)N[C@@H](CC(N)=O)C(=O)N[C@@H](Cc1ccc(O)cc1)C(N)=O)C(C)C)C(C)C [Structure 4, [Nle^8,18,D-Trp^12,Lys^13 (N^ε,N^ε -diisobutyl),Tyr^34]bPTH(7-34)NH2] | 15.9 nM | 231 ± 23 nM | 
2 | CCCCCC(=O)N[C@@H](Cc1c[nH]cn1)C(=O)N[C@@H](CC(N)=O)C(=O)N[C@@H](CC(C)C)C(=O)N[C@H](Cc1c[nH]c2ccccc12)C(=O)N[C@@H](CCCCNC(=O)CCc1ccccc1)C(=O)N[C@@H](Cc1c[nH]cn1)C(=O)N[C@@H](CC(C)C)C(=O)N[C@@H](CO)C(=O)N[C@@H](CO)C(=O)N[C@@H](CCCC)C(=O)N[C@@H](CCC(=O)O)C(=O)N[C@@H](CCCNC(=N)N)C(=O)N[C@H](C(=O)N[C@@H](CCC(=O)O)C(=O)N[C@@H](Cc1c[nH]c2ccccc12)C(=O)N[C@@H](CC(C)C)C(=O)N[C@@H](CCCNC(=N)N)C(=O)N[C@@H](CCCCN)C(=O)N[C@@H](CCCCN)C(=O)N[C@@H](CC(C)C)C(=O)N[C@@H](CCC(N)=O)C(=O)N[C@@H](CC(=O)O)C(=O)N[C@H](C(=O)N[C@@H](Cc1c[nH]cn1)C(=O)N[C@@H](CC(N)=O)C(=O)N[C@@H](Cc1ccc(O)cc1)C(N)=O)C(C)C)C(C)C [Structure 2, desamino[Nle^8,18,D-Trp^12,Lys^13 (N^ε --CO(CH2)2 -Phenyl),Tyr^34]bPTH(8-34)NH2] (Hexanoyl-HNL[dW]K(Hydrocinnamoyl)HLSS[Nle]ERVEWLRKKLQDVHNY-NH2) | 3.5 ± 0.4 nM | 73 ± 22 nM | 
3 | CCCC[C@H](NC(=O)[C@H](CO)NC(=O)[C@H](CO)NC(=O)[C@H](CC(C)C)NC(=O)[C@H](Cc1c[nH]cn1)NC(=O)[C@H](CCCCNC(=O)CCc1ccccc1)NC(=O)[C@@H](Cc1c[nH]c2ccccc12)NC(=O)[C@H](CC(C)C)NC(=O)[C@H](CC(N)=O)NC(=O)[C@H](Cc1c[nH]cn1)NC(=O)[C@H](CCCC)NC(=O)[C@@H](N)Cc1ccccc1)C(=O)N[C@@H](CCC(=O)O)C(=O)N[C@@H](CCCNC(=N)N)C(=O)N[C@H](C(=O)N[C@@H](CCC(=O)O)C(=O)N[C@@H](Cc1c[nH]c2ccccc12)C(=O)N[C@@H](CC(C)C)C(=O)N[C@@H](CCCNC(=N)N)C(=O)N[C@@H](CCCCN)C(=O)N[C@@H](CCCCN)C(=O)N[C@@H](CC(C)C)C(=O)N[C@@H](CCC(N)=O)C(=O)N[C@@H](CC(=O)O)C(=O)N[C@H](C(=O)N[C@@H](Cc1c[nH]cn1)C(=O)N[C@@H](CC(N)=O)C(=O)N[C@@H](Cc1ccc(O)cc1)C(N)=O)C(C)C)C(C)C [Structure 3, [Nle^8,18,D-Trp^12,Lys^13 (N^ε --CO(CH2)2 -Phenyl),Tyr^34]bPTH(7-34)NH2] | 7.1 ± 0.2 nM | 57 ± 11 nM | 119 ± 21.5 nM
4 | CCCC[C@H](NC(=O)CCc1ccccc1)C(=O)N[C@@H](Cc1c[nH]cn1)C(=O)N[C@@H](CC(N)=O)C(=O)N[C@@H](CC(C)C)C(=O)N[C@H](Cc1c[nH]c2ccccc12)C(=O)N[C@@H](CCCCNC(=O)CCc1ccccc1)C(=O)N[C@@H](Cc1c[nH]cn1)C(=O)N[C@@H](CC(C)C)C(=O)N[C@@H](CO)C(=O)N[C@@H](CO)C(=O)N[C@@H](CCCC)C(=O)N[C@@H](CCC(=O)O)C(=O)N[C@@H](CCCNC(=N)N)C(=O)N[C@H](C(=O)N[C@@H](CCC(=O)O)C(=O)N[C@@H](Cc1c[nH]c2ccccc12)C(=O)N[C@@H](CC(C)C)C(=O)N[C@@H](CCCNC(=N)N)C(=O)N[C@@H](CCCCN)C(=O)N[C@@H](CCCCN)C(=O)N[C@@H](CC(C)C)C(=O)N[C@@H](CCC(N)=O)C(=O)N[C@@H](CC(=O)O)C(=O)N[C@H](C(=O)N[C@@H](Cc1c[nH]cn1)C(=O)N[C@@H](CC(N)=O)C(=O)N[C@@H](Cc1ccc(O)cc1)C(N)=O)C(C)C)C(C)C [Structure 1, desamino[Nle^8,18,D-Trp^12,Lys^13 (N^ε --CO(CH2)2 -Phenyl),Tyr^34]bPTH(7-34)NH2] (Hydrocinnamoyl-[Nle]HNL[dW]K(Hydrocinnamoyl)HLSS[Nle]ERVEWLRKKLQDVHNY-NH2) | 5.3 ± 0.9 nM | 138 ± 27 nM | 
